Assay results published in PubChem BioAssay AID493014 (National Center for Advancing Translational Sciences (NCATS), 2011).
This is one part of the list. These are further read-outs of the screen, such as a control signal, another cell line or another target. No call is given for them. Most of these compounds were active or inconclusive in the main read-out, so they are no random draw. Words in brackets tell the shape of the fitted curve; partial curves, single points and poor fits give uncertain potencies.

Assay: qHTS Assay to Find Inhibitors of Chronic Active B-Cell Receptor Signaling
Details: ABC-DLBCL IkBa-CBG/CBR reporter, luminescence ratio (green luciferase fused to IkBa over red control in TMD8 lymphoma cells), 4 h
Outline: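 Compounds up to 46 uM were incubated four hours with TMD8 cells whose green CBG68 luciferase is fused to IkappaBalpha; red CBR luminescence normalised the signal, and concentration-effect curves were fitted to fusion, red and ratio data.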

[1] = measured here: CBR red luminescence, cell number
[2] = measured here: IkBa-CBG green luminescence

Row | Compound | AC50 [1] | AC50 [2]
1 | O=C(Cc1c(F)cccc1Cl)Nc1ncc([N+](=O)[O-])s1 | 35.5 µM [falling, single point] | –
2 | CCc1ccc(N(C)S(=O)(=O)c2ccc3[nH]cc(C(=O)NCCN4CCOCC4)c(=O)c3c2)cc1 | 25.9 µM [rising, single point] | –
3 | COc1ccc(CC(=O)Nc2nc3ccc(F)cc3s2)cc1S(=O)(=O)N1CCOCC1 | 8.2 µM [falling, partial curve, poor fit] | –
4 | COc1ccccc1-c1nnc(SCC(=O)Nc2ccccc2)o1 | 23.1 µM [falling, single point] | –
5 | COC(=O)CN1C(=O)N/C(=C/c2ccc(OC)c(C)c2OC)C1=O | 0.562 µM [falling, full curve, poor fit] | –
6 | CC(=O)N(Cc1ccccc1)Cc1nc2sc(C)c(C)c2c(=O)[nH]1 | 0.251 µM [rising, full curve, poor fit] | –
7 | COc1ccc(NC(=O)CO/N=C/C(=O)Nc2ccccc2C)c([N+](=O)[O-])c1 | 0.082 µM [rising, full curve, poor fit] | –
8 | O=C1OC(=O)C2C1[C@@H]1CC[C@H]2O1 (stereo not given in full) | 14.1 µM [rising, partial curve, poor fit] | –
9 | CC(C)(C)c1ccc(N=C2SCC(=O)N2Cc2cccs2)cc1 | 35.5 µM [rising, partial curve, poor fit] | –
10 | NNC(=O)c1oc2ccccc2c1-n1cccc1 | 6.31 µM [rising, partial curve, poor fit] | 3.98 µM [falling, single point]
11 | O=C1C=C(Nc2ccc(F)cc2)c2ccccc2C1=O | 4.11 µM [falling, single point] | –
12 | CCCCNC(=O)c1ccccc1NC(=O)CCSc1ccccc1 | 18.4 µM [falling, partial curve, poor fit] | –
13 | Cc1ccc(N2CCN(S(=O)(=O)c3ccc(F)c(C)c3)CC2)c(C)c1 | 32.6 µM [rising, single point] | –
14 | CC(=O)Nc1ccc(NC(=O)COC(=O)[C@@H]2CCCN2C(=O)c2cccs2)cc1 | 20.6 µM [rising, single point] | –
15 | Cc1cc(C)nc(SCc2ccc(C(=O)N/N=C/c3cccnc3)cc2)n1 | 4.47 µM [rising, full curve, poor fit] | 10 µM [falling, partial curve, poor fit]
16 | CN(C)S(=O)(=O)c1ccc(C(=O)Nc2nnc(-c3ccco3)o2)cc1 | 5.62 µM [falling, single point] | –
17 | CCc1cc(Cn2nc(C(=O)O)cc2-c2ccccc2)on1 | 0.58 µM [rising, full curve] | –
18 | COc1cc(NC(=S)N2CCN(C(c3ccccc3)c3ccccc3)CC2)cc(OC)c1 | 18.4 µM [falling, single point] | –
19 | COc1ccc(C)cc1N(C(=O)c1snc(C(N)=O)c1N)C(C(=O)NC1CCCC1)c1ccc(F)cc1 (stereo not given) | 8.91 µM [falling, partial curve, poor fit] | –
20 | O=C(c1cc(-c2ccco2)on1)N1CCCc2ccccc21 | 1.58 µM [rising, full curve] | –

Row | Compound | AC50 [1] | AC50 [2]
21 | O=c1cc(-c2ccccc2)nc2nc(-c3ccccc3)[nH]n12 | 0.92 µM [falling, full curve] | –
22 | CN(C)C(=O)COC(=O)c1ccccc1Nc1ccc(SC(F)F)cc1 | 20.6 µM [falling, partial curve] | –
23 | O=C(c1ccc2c(c1)OCO2)N1CCNc2ccccc2C1 | 1.46 µM [falling, partial curve] | –
24 | CNC(=O)/C(C#N)=C/c1c(N(Cc2ccccc2)Cc2ccccc2)nc2c(C)cccn2c1=O | 2.59 µM [falling, partial curve, poor fit] | –
25 | COc1cc(/C=N/NC(=O)CCn2c3ccccc3c3ccccc32)cc(OC)c1OC | 0.366 µM [rising, full curve, poor fit] | –
26 | COc1ccc(N2C(=O)[C@@H]3[C@H](C2=O)[C@H]2C=CC=NN2[C@@H]3C(=O)Nc2ccc(Cl)cc2)cc1 | 12.6 µM [falling, partial curve, poor fit] | –
27 | Cc1ccccc1NS(=O)(=O)c1ccc(C2CNC(=O)C2)cc1 (stereo not given) | 0.164 µM [falling, full curve, poor fit] | –
28 | O=C(NC(Cc1ccccc1)C(=O)O)C1CCCCC1 (stereo not given) | 0.184 µM [rising, full curve] | –
29 | CC(C)CC(=O)Nc1sc2c(c1C(=O)O)CCCCC2 | 12.6 µM [falling, partial curve] | –
30 | CCOC(=O)N1CCC(NCCNC(=O)c2cccs2)CC1 | 2.59 µM [falling, partial curve, poor fit] | 1.64 µM [rising, partial curve, poor fit]
31 | CCOc1ccccc1NC(=O)c1ccc(F)c(S(=O)(=O)NCc2ccc3c(c2)OCO3)c1 | 0.631 µM [rising, full curve, poor fit] | –
32 | CN(C)c1ccc(Sc2nnc(NC(=O)Nc3ccc(Cl)cc3Cl)s2)cc1 | 14.6 µM [rising, partial curve] | –
33 | Cc1ccc(S(=O)(=O)N2CCN(C(=O)CC(C)n3cncn3)CC2)cc1C (stereo not given) | 6.31 µM [falling, partial curve, poor fit] | –
34 | CSc1nsc(SCCN2C(=O)c3ccccc3C2=O)n1 | 0.082 µM [rising, full curve, poor fit] | –
35 | Nc1c(C(=O)NCc2ccco2)c2nc3ccccc3nc2n1CCc1ccc(F)cc1 | 2.59 µM [falling, full curve, poor fit] | –
36 | COc1ccccc1N1CCN(CC(=O)c2ccc3ccn(C(C)=O)c3c2)CC1 | 0.82 µM [rising, full curve, poor fit] | –
37 | COc1cccc(C(=O)Nc2ccccc2OC(F)(F)F)c1 | 35.5 µM [rising, partial curve, poor fit] | –
38 | CC1=NNC(=O)C1C(c1ccccc1)C1C(=O)NN=C1C (stereo not given) | 4.47 µM [falling, partial curve, poor fit] | 35.5 µM [falling, single point]
39 | Cc1cc(=O)[nH]c(SCC(=O)Nc2cccc3ccccc23)c1C#N | 20.6 µM [falling, partial curve, poor fit] | –
40 | CCCOc1ccc(C(=O)Nc2ccc(S(=O)(=O)N3C[C@@H]4C[C@@H](C3)c3cccc(=O)n3C4)cc2)cc1 | 2.31 µM [falling, partial curve, poor fit] | –

Row | Compound | AC50 [1] | AC50 [2]
41 | C=CCn1c2ccccc2c2nnc(SCCN3CCOCC3)nc21 | 10 µM [falling, partial curve, poor fit] | –
42 | CCOC(=O)c1ccc(Nc2ccc([N+](=O)[O-])cn2)cc1 | 4.11 µM [rising, full curve, poor fit] | –
43 | N/C(=N\NC(=O)c1cccs1)c1cc2cc(Cl)ccc2oc1=O | 35.5 µM [falling, single point] | –
44 | O=C1OC(c2ccc(F)cc2)=N/C1=C\C=C/c1ccccc1 | 12.6 µM [falling, single point] | –
45 | CCOc1ccc(/C=C/C(=O)c2c(O)c3ccccc3oc2=O)cc1 | 0.631 µM [falling, full curve, poor fit] | –
46 | O=C(NCC(c1cccs1)N1CCOCC1)c1cc(-c2ccccn2)nc2ccccc12 (stereo not given) | 2.51 µM [rising, partial curve, poor fit] | –
47 | COc1ccc(/C=C/C(=O)C(C)(C)C)cc1OC | 1.12 µM [rising, partial curve, poor fit] | –
48 | CCN1CCN(C(=O)c2ccc(CS(=O)(=O)Cc3ccccc3C)o2)CC1 | 6.31 µM [rising, partial curve, poor fit] | –
49 | COc1ccccc1-n1cnc2cc(NCc3cccs3)ccc21 | 5.8 µM [falling, single point] | 6.51 µM [falling, partial curve]
50 | COc1ccc(NC(=O)c2cccc([N+](=O)[O-])c2)cc1 | 2.51 µM [falling, full curve, poor fit] | –
51 | COc1ccc(C2C(C#N)=C(N)Oc3n[nH]c(C)c32)cc1CSc1ccccn1 (stereo not given) | 0.517 µM [falling, partial curve, poor fit] | –
52 | Cc1[nH]c2ccccc2c1SCCNC(=O)c1ccc(S(=O)(=O)N2CCCC2)cc1 | 16.4 µM [falling, single point] | –
53 | Cc1ccc(S(=O)(=O)CCC(=O)Nc2ccc(F)cc2)cc1 | 14.1 µM [rising, partial curve, poor fit] | –
54 | Cc1ccc([N+](=O)[O-])cc1NC(=O)C[n+]1ccccc1 | 10 µM [rising, partial curve, poor fit] | –
55 | Cc1cc(/C=N\NC(=O)c2cccs2)c(C)n1-c1ccc2ncccc2c1 | 35.5 µM [falling, single point] | –
56 | Cn1c(-c2ccc3c(c2)OCO3)cnc1NCc1ccccc1Cl | 7.94 µM [falling, partial curve, poor fit] | –
57 | CC1=NN(C(=O)c2ccccc2Br)C(O)(c2ccc(Cl)cc2)C1 (stereo not given) | 6.31 µM [falling, full curve] | –
58 | CCc1ccc(C(=O)NN(C(=O)c2ccc(CC)cc2)C(C)(C)C)cc1 | 2.59 µM [rising, partial curve, poor fit] | –
59 | O=[N+]([O-])c1cccc(-c2nc(-c3ccncc3)no2)c1 | 4.47 µM [rising, full curve, poor fit] | –
60 | COc1cccc(N2CCN(C(=O)c3cc4c(s3)CCCCC4)CC2)c1 | 5.17 µM [falling, full curve, poor fit] | –

An excerpt of these results, with each value named:
Cc1[nH]c2ccccc2c1SCCNC(=O)c1ccc(S(=O)(=O)N2CCCC2)cc1
  AC50 [1]: 16.4 µM [falling, single point]
Cc1ccc(S(=O)(=O)CCC(=O)Nc2ccc(F)cc2)cc1
  AC50 [1]: 14.1 µM [rising, partial curve, poor fit]
Cc1ccc([N+](=O)[O-])cc1NC(=O)C[n+]1ccccc1
  AC50 [1]: 10 µM [rising, partial curve, poor fit]
